Values of other authors in US20090062242A1, “METHODS AND COMPOSITIONS FOR TREATING GASTROINTESTINAL CONDITIONS” (AGI Therapeutics plc, priority 2007, published 2009).
Some of these results come from one statement about several compounds together.

Test system: P-glycoprotein
Conditions: procedure of Varma & Panchagnula; rat ileum segment, pH 7.4, quinidine 200 μM; value lies between 0 and 1

| Structure (SMILES) | efflux inhibition ratio (EIR) |
| --- | --- |
| Nc1ccc(O)c(C(=O)O)c1 [5-aminosalicylic acid] | less than 0.4 |
| O=C(O)c1cc(=O)c2c(OCC(O)COc3cccc4oc(C(=O)O)cc(=O)c34)cccc2o1 [cromoglycate] | less than 0.4 |
